From PubChem BioAssay AID504834 (National Center for Advancing Translational Sciences (NCATS), 2011)
The campaign covered roughly 320,000 compounds. About 22,000 (6.9%) were called active. Inconclusive means that the source gave no clear call. Such entries were picked first, then a sample of the others. Calls follow the shape of the dose curve; as a rule, active = well fitted inhibition curve with a large enough effect; inconclusive = small, poorly fitted or top-dose-only effect, or another doubt; inactive = no such curve, though single readings can be large or run the other way. Potencies beside an inconclusive call are fits to weak or partial responses and may not hold up.

Assay: Primary qHTS for delayed death inhibitors of the malarial parasite plastid, 96 hour incubation
Settings: P. falciparum luciferase reporter growth; series mostly up to 28.7 µM
Outline: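 Compounds incubated with erythrocytes infected by luciferase-expressing P. falciparum (2% hematocrit, 0.05% parasitemia final) for 96 hours, 37 C in 5% CO2. Growth inhibition scored as decreased luciferase luminescence.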
Potency is read from the fitted curve at half-maximal effect.

SMILES | Potency
O=C1/C(=C\Nc2ccc(Cl)cc2)CCN1c1ncccn1 | inactive
Cc1cc(=O)oc(C)c1C(=O)NCCc1ccccc1 | inconclusive: 10.4 µM [inhibitor, single point]
O=C(Nc1ccc2c(c1)OCO2)c1cccc2c1C(=O)N(Cc1cccnc1)C2 | inconclusive: 0.0329 µM [inhibitor, full curve, poor fit]
CC1(CCc2ccccc2)NC(=S)N(c2ccccc2)N1 (stereo unspecified) | inconclusive: 18.5 µM [inhibitor, single point]
O=S(=O)(NNC(=S)Nc1ccc(S(=O)(=O)Nc2ncccn2)cc1)c1ccc(Br)cc1 | inconclusive: 0.465 µM [inhibitor, full curve, poor fit]
O=C1[C@@H]2Cc3c([nH]c4ccccc34)C(c3ccccc3)N2C(=O)CN1C1CC1 (stereo partly specified) | inconclusive: 1.31 µM [inhibitor, full curve]
Cc1c(NC(=O)CN2C(=O)NC3(CCCCC3)C2=O)c(=O)n(-c2ccccc2)n1C | inconclusive: 18.5 µM [inhibitor, single point]
CCOC(=O)c1c(OCCO)nn(-c2ccc(Cl)cc2)c1N | inactive
COCC1CCCCN1C(=O)c1ccc2oc(CCc3ccccc3)nc2c1 (stereo unspecified) | inconclusive: 8.28 µM [inhibitor, partial curve]
Cc1ccc(NC(=O)CSc2nnc(CCCCCNC(=O)OC(C)(C)C)o2)c(C)c1 | active: 13.1 µM
COc1ccc(C)cc1Nc1n[n+](-c2ccccc2)c(-c2c(Cl)cccc2Cl)s1 | active: 7.38 µM
NC(=O)C[n+]1cccc(C(=O)Nc2ccccc2)c1 | inconclusive: 4.15 µM [inhibitor, single point]
Nc1n[nH]c2cc(=O)n(-c3cccc(C(F)(F)F)c3)nc12 | inactive
O=C(O)c1ccc(/C=N/N2CCN(Cc3ccccc3)CC2)cc1 | inactive
CN(Cc1cn(C)nc1-c1cccc(Cl)c1)CC1CCCCO1 (stereo unspecified) | active: 10.4 µM
CN(C(=O)COC(=O)c1ccc(Cl)c(S(=O)(=O)N2CCCCC2)c1)C1(C#N)CCCCC1 | inconclusive: 18.5 µM [inhibitor, single point]
CCC(=O)N1CCC2(CC1)Oc1ccc(Cl)cc1C(=O)C21CC(c2cccnc2)=NO1 (stereo unspecified) | inconclusive: 18.5 µM [inhibitor, single point]
Cc1ccc(S(=O)(=O)N2CCOCC2)cc1C(=O)N1CCN(S(=O)(=O)c2cccc(F)c2)CC1 | inconclusive: 14.7 µM [inhibitor, single point]
O=C(CSc1c(Cl)cccc1Cl)N1CCC(c2nc3ccccc3s2)CC1 | inconclusive: 16.5 µM [inhibitor, single point]
CC(C)c1ccc(NC(=O)c2ccc(NC3=NC4CS(=O)(=O)CC4S3)cc2)cc1 (stereo unspecified) | inactive
O=C(Nc1cccc(Oc2ccc(C(=O)O)c(C(=O)O)c2)c1)c1ccc(-c2ccccc2)cc1 | inactive
C/C(=N\N(c1ccccc1)c1ccccc1)c1ccc(O)cc1 | inconclusive: 1.85 µM [inhibitor, full curve]
C=CCc1ccccc1OCC(O)CN1CCN(C(=O)OCC)CC1 (stereo unspecified) | inconclusive: 0.522 µM [inhibitor, full curve, poor fit]

SMILES | Potency
COc1ccc(C2C(C(=O)N3CCN(c4ccccc4)CC3)c3ccccc3C(=O)N2C)cc1 (stereo unspecified) | inconclusive: 1.47 µM [inhibitor, partial curve, poor fit]
COc1ccccc1NS(=O)(=O)c1ccc(C)c(C(N)=O)c1 | active: 5.22 µM
O=C(Nc1ccc(Br)cc1)c1cccc(-n2cnnn2)c1 | inconclusive: 5.86 µM [inhibitor, partial curve]
Cc1cc(-c2ccc(C(C)C)c(S(=O)(=O)N3CCN(c4ccccc4)CC3)c2)on1 | inconclusive: 18.5 µM [inhibitor, single point]
Cc1ccc(C)c(OCc2cc(C(=O)N3CCOCC3)no2)c1 | inconclusive: 10.4 µM [inhibitor, partial curve, poor fit]
O=C(CNCc1ccccn1)Nc1ccc([N+](=O)[O-])cc1C(=O)Nc1ccccc1F | inactive
Cc1ccc(S(=O)(=O)N(C)c2ccc(OC(=O)CN3C(=O)NC4(CCCC4)C3=O)cc2)cc1C | inactive
Cc1ccc(S(=O)(=O)NC(CC(C)C)C(=O)N2CCOCCOCCOCC2)cc1 (stereo unspecified) | inactive
Fc1ccc(-c2csc3ncnc(N4CCN(c5ccccc5)CC4)c23)cc1 | active: 5.86 µM
COCCc1nc2ccc(C(=O)N3CCCCC3COC)cc2o1 (stereo unspecified) | inactive
Cc1c(C)c2ccc(OCC(=O)Nc3ccc(N4CCC(C)CC4)cc3)cc2oc1=O | inconclusive: 7.38 µM [inhibitor, partial curve, poor fit]
CCC(C(=O)Nc1nc(C)c(C)s1)c1ccccc1 (stereo unspecified) | inconclusive: 18.5 µM [inhibitor, single point]
CC1=C([N+](=O)[O-])C(c2ccc(Cl)cc2)NC(=O)N1C (stereo unspecified) | inconclusive: 11.7 µM [inhibitor, partial curve, poor fit]
Clc1ccc(C(CCN2CCCC2)Cc2ccccc2)cc1 (stereo unspecified) | inconclusive: 18.5 µM [inhibitor, single point]
O=C1OC(CC(=O)N(Cc2nnc(-c3ccccc3Cl)o2)C2CC2)c2ccccc21 (stereo unspecified) | inactive
CC(=O)Nc1cc(C(=O)CSc2nnc(C3CC3)n2C2CC2)ccc1O | inconclusive: 2.94 µM [inhibitor, full curve, poor fit]
O=C(CN1CCN(c2ccccc2)CC1)Nc1ccc(F)cc1 | inactive
CCOc1ccc(CC(=O)Nc2c(C(N)=O)oc3ccccc23)cc1OCC | active: 11.7 µM
CC(C)C[C@H](NC(=O)c1[nH]cnc1C(=O)N[C@@H](Cc1ccccc1)C(=O)OC(C)(C)C)C(=O)OCc1ccccc1 | inactive
Cc1cc(C(=O)COC(=O)c2ccc(Br)o2)c(C)n1Cc1ccco1 | inactive
NC(=O)C1CCN(C(=O)c2ccc([N+](=O)[O-])cc2NC(=O)c2cccs2)CC1 | inactive
CN(C)CCNC(=O)c1[nH]nc2c1CCc1ccccc1-2 | inactive
CCN=C1S/C(=C\c2cc(OCC)c(O)cc2Br)C(=O)N1CC | active: 10.4 µM

3 structures from above, arranged by formula weight, ascending:
SMILES | Potency
CC(C)c1ccc(NC(=O)c2ccc(NC3=NC4CS(=O)(=O)CC4S3)cc2)cc1 (stereo unspecified) | inactive
O=C(Nc1cccc(Oc2ccc(C(=O)O)c(C(=O)O)c2)c1)c1ccc(-c2ccccc2)cc1 | inactive
Cc1ccc(S(=O)(=O)N(C)c2ccc(OC(=O)CN3C(=O)NC4(CCCC4)C3=O)cc2)cc1C | inactive
